Experimental data published in patent US20150176012.
For some assays here: Negatives hold for the conditions tested. Tags and fusion partners may be left off the protein sequences shown.

What was measured:
Experiment in all cases: activity in cells
[1] = test system: T1, Vika (Vibrio coralliilyticus ATCC BAA-450); settings: protein in cells, only the site is given
T1 sequence (limits assumed): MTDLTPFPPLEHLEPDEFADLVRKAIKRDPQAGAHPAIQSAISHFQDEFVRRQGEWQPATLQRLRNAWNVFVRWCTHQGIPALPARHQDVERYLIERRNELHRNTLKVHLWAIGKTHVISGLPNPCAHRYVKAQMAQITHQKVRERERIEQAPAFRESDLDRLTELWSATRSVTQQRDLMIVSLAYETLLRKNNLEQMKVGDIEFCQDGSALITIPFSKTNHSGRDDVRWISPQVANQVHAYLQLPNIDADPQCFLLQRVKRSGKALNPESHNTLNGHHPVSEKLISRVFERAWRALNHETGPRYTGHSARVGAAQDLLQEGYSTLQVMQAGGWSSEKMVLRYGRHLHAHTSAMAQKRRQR

Cre (Bacteriophage P1) = molecular target: T2, Cre (Bacteriophage P1) (UniProt P06956); settings: protein in cells, only the site is given
T2 sequence (limits assumed): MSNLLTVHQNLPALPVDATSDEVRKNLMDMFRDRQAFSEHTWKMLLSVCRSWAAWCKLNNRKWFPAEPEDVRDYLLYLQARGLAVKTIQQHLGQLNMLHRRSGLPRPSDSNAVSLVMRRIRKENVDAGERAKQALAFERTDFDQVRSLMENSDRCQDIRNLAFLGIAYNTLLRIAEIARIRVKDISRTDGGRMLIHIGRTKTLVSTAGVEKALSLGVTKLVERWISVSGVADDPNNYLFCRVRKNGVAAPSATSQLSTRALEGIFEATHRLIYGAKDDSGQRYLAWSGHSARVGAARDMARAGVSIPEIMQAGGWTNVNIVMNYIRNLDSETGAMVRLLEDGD

[2] = test system: T3, Dre (Enterobacteria phage D6); settings: E. coli excision reporter; protein in cells; only the site is given
T3 sequence (limits assumed): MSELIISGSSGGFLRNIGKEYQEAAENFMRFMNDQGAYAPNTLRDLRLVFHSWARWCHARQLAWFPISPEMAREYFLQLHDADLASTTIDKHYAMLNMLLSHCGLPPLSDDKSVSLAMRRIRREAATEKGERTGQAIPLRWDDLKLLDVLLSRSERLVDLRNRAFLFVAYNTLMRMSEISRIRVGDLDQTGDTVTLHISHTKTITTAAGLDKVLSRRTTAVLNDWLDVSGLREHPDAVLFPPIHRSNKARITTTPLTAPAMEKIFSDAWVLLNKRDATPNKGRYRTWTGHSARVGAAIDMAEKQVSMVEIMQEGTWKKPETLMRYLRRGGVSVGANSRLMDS

[3] = test system: T4, VCre (Vibrio plasmid p0908); settings: protein in cells, only the site is given
T4 sequence (limits assumed): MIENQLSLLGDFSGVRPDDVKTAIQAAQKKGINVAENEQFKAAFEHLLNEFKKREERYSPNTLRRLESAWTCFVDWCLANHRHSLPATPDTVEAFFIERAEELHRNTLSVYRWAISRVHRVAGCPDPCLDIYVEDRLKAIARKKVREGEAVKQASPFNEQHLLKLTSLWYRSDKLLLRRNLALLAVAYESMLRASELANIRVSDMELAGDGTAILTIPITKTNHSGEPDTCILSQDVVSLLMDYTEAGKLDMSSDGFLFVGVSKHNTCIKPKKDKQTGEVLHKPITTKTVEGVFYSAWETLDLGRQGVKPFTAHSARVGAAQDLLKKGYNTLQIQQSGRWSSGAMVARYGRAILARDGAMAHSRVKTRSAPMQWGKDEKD

Panto (Pantoea sp. aB) = test system: T5, Panto (Pantoea sp. aB); settings: E. coli excision reporter, arabinose induced; protein in cells; only the site is given
T5 sequence (limits assumed): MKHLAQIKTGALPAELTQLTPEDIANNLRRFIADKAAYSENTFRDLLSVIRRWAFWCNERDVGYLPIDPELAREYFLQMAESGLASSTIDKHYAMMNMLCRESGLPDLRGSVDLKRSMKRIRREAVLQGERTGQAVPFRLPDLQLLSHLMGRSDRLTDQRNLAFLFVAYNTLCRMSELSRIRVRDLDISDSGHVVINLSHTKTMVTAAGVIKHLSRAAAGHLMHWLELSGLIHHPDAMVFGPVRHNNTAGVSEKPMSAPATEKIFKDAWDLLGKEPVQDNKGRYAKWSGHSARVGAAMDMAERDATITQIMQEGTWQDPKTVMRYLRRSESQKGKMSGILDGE

[4] = test system: T6, Nigri (Vibrio nigripulchritudo); settings: E. coli excision reporter, arabinose induced; protein in cells; only the site is given
T6 sequence (limits assumed): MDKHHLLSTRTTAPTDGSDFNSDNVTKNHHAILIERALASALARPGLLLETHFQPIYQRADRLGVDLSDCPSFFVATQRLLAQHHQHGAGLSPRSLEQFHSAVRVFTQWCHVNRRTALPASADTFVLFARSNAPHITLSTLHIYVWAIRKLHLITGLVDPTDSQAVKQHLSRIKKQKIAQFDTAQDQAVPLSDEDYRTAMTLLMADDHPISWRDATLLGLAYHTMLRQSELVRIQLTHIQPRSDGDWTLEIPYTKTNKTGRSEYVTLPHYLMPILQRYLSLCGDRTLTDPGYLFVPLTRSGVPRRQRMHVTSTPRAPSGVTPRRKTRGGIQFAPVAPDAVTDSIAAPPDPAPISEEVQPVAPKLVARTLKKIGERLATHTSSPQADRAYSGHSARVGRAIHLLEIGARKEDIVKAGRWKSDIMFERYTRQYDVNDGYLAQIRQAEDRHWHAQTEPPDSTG

[5] = E. coli, 100 ug/ml arabinose, variant of vox
[6] = E. coli, prominent activity, variant of loxP

Sequence: AACAGCTTTGAGAGCTGTTGCTCTCAGCTGAATT (double strand) [voxCMp92]
- activity on this sequence [1, 5]: not active

Sequence: AACAGGACTGAGATAAAACAGTCTCAGACAGCAT (double strand) [voxCHp3]
- activity on this sequence [1, 5]: not active

Sequence: AAGAGAACTGAGAAAATATTCTCTCAGAGGGAAT (double strand) [voxCHX]
- activity on this sequence [1, 5]: not active

Sequence: AAGAGGTGTGAGACTGAATTTTCTCAGTCAGGTT (double strand) [voxCH21]
- activity on this sequence [1, 5]: not active

Sequence: AATAGGTCTGAGAACGCCCATTCTCAGACGTATT (double strand) [vox]
- activity on this sequence (Cre (Bacteriophage P1); E. coli excision reporter): not active
- activity on this sequence [2]: not active
- activity on this sequence ([3]; E. coli excision reporter): not active
- activity on this sequence ([1]; E. coli excision of ~1 kb between two vox sites, arabinose induced): active

Sequence: ACAACCATTTATAATATATAATATATGATGTTAT (double strand) [loxhXp22]
- activity on this sequence (Cre (Bacteriophage P1); [6]): active

Sequence: ATAACTTCGTATAGCATACATTATACGAAGTTAT (double strand) [loxP]
- activity on this sequence ([1]; E. coli excision reporter): not active

Sequence: CAGAGCTCTGAGACTTTGTGTTCTCAAAGATATC (double strand) [voxCH18]
- activity on this sequence [1, 5]: not active

Sequence: GAAACTTTAAATAATAAGTCTTATATAAAGTTTC (double strand) [pox]
- activity on this sequence (Panto (Pantoea sp. aB)): active

Sequence: GTAACTGAGTATATGCATATATATACGTATATAT (double strand) [loxM5]
- activity on this sequence (Cre (Bacteriophage P1); [6]): active

Sequence: TAACTTTAAATAATTGGCATTATTTAAAGTTA (double strand) [rox]
- activity on this sequence ([1]; E. coli excision reporter): not active

Sequence: TCAATTTCCGAGAATGACAGTTCTCAGAAATTGA (double strand) [VloxP]
- activity on this sequence ([3]; E. coli, arabinose titration and lacZ reporter): active
- activity on this sequence ([1]; E. coli excision reporter): not active

Sequence: TGAATGTCCTATAATTACACTTATAGGACATTCA (double strand) [nox]
- activity on this sequence [4]: active
